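Vaccinia-infected cells with a two-color viral stage reporter; Venus fluorescence read on a plate reader; the cell line is not named here; timing not stated here.
The test concentration is not given here.
Percent change in Venus reporter signal; lower (more negative) values mean stronger inhibition of that viral stage.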

Values are in %.
How 0% and 100% were set is not given here.
Common to all entries: measured here: Venus reporter, other viral stage.
This is a side read-out of the assay, for part of the compounds, not drawn at random.

Compound	activity change (Venus) (%)
COc1ccc(NC(=O)Nc2ccc3c(c2)C(=O)N([C@H](C)CO)C[C@H](C)[C@@H](CN(C)Cc2ccc4c(c2)OCO4)OCCCC[C@H](C)O3)cc1	-29.64
O=C(C[C@@H]1CC[C@@H]2[C@H](COC[C@H](O)CN2C(=O)c2ccc(F)cc2)O1)Nc1ccc(-c2ccccc2)cc1	-31.84
O=C(C[C@@H]1CC[C@@H]2[C@H](COC[C@@H](O)CN2Cc2cccc(-c3ccncc3)c2)O1)N1CCCCC1	-27.95
O=C1O[C@@H](c2ccccc2)[C@@H](c2ccccc2)N2[C@@H](c3ccccc3OCCO)[C@]3(C(=O)Nc4ccccc43)[C@@H](C(=O)N3CCCCCCC3)[C@H]12	-32.17
C[C@H](CO)N1C[C@H](C)[C@@H](CN(C)Cc2ccc(Cl)c(Cl)c2)Oc2ccc(NC(=O)CCCN(C)C)cc2CC1=O	-30.49
C[C@@H]1CN([C@@H](C)CO)C(=O)c2cc(NC(=O)Nc3ccccc3)ccc2O[C@@H](C)CCCCO[C@@H]1CN(C)Cc1ccc2c(c1)OCO2	-39.08
C[C@@H]1CCCCO[C@@H](CN(C)Cc2ccc(C(F)(F)F)cc2)[C@H](C)CN([C@@H](C)CO)C(=O)c2cc(NC(=O)CCCN(C)C)ccc2O1	-55.15
C/C=C/c1ccc([C@@H]2[C@@H](CO)N(C(=O)CN(C)C)C23CN(C(=O)C2CCCCC2)C3)cc1	-25.04
CC(C)CC#Cc1ccc2c(c1)O[C@@H](CN(C)Cc1cccnc1)[C@H](C)CN([C@@H](C)CO)S2(=O)=O	-72.79
C[C@@H]1CN([C@@H](C)CO)C(=O)c2cccc(NC(=O)C3CCCCC3)c2O[C@@H]1CN(C)C(=O)Nc1ccc(C(F)(F)F)cc1	-50.95
C[C@@H]1CCCCO[C@@H](CN(C)Cc2ccc(C(F)(F)F)cc2)[C@H](C)CN([C@H](C)CO)C(=O)c2cc(NS(=O)(=O)c3cccs3)ccc2O1	-40.23
C[C@@H]1CN([C@H](C)CO)C(=O)Cc2cc(NC(=O)Nc3ccc(C(F)(F)F)cc3)ccc2O[C@@H]1CN(C)S(=O)(=O)c1cccs1	-19.46
C[C@@H]1CN([C@@H](C)CO)S(=O)(=O)c2ccc(C#CC3CC3)cc2O[C@H]1CN(C)Cc1ccccc1F	-40.96
C[C@@H]1CN([C@@H](C)CO)C(=O)Cc2cc(N(C)C)ccc2O[C@@H]1CN(C)Cc1ccc(Oc2ccccc2)cc1	-46.42
COCC(=O)N1CCCCN2[C@H](C1)[C@@H](c1ccc(C#Cc3ccc(OC)cc3)cc1)[C@@H]2CO	-53.51
COc1ccc(S(=O)(=O)N(C)C[C@@H]2OCCCC[C@@H](C)Oc3ccc(NC(=O)c4ccccc4)cc3C(=O)N([C@@H](C)CO)C[C@H]2C)cc1	-30.42
C[C@@H]1CN([C@H](C)CO)S(=O)(=O)c2ccc(C#Cc3ccc(F)cc3)cc2O[C@@H]1CN(C)S(=O)(=O)c1cn(C)cn1	-66.02
C[C@H](CO)N1C[C@H](C)[C@@H](CN(C)Cc2ccc(C(F)(F)F)cc2)Oc2ccc(NS(=O)(=O)c3ccc(Cl)cc3)cc2CC1=O	-85.96
Cc1noc(C)c1S(=O)(=O)Nc1ccc2c(c1)C(=O)N([C@@H](C)CO)C[C@H](C)[C@@H](CN(C)C(=O)Nc1ccc(C(F)(F)F)cc1)OCCCC[C@H](C)O2	-28.44
Cc1ccc(S(=O)(=O)N[C@@H]2C=C[C@@H](CC(=O)N3CCC(Cc4ccccc4)CC3)O[C@H]2CO)cc1	-35.59
O=C(Nc1ccc(F)cc1)N1CC(=O)N2[C@H](CO)[C@H](c3ccc(-c4cccc(F)c4)cc3)[C@@H]2C1	-40.03
O=C(Nc1cccc(F)c1)N1CCCCN2[C@H](CO)[C@@H](c3ccc(C#Cc4cccnc4)cc3)[C@H]2C1	-56.21
C[C@H]1CN([C@@H](C)CO)C(=O)c2c(c3ccccc3n2C)-c2ccccc2CO[C@@H]1CN(C)S(=O)(=O)c1ccc(C(F)(F)F)cc1	-37.17
CCCC#Cc1ccc([C@H]2[C@H](CO)N3CCCCN(C(=O)NC4CCCC4)C[C@@H]23)cc1	-46.07
COc1ccc(-c2ccc3c(c2)[C@@H]2[C@@H](CCN2C(=O)NC2CCCCC2)[C@@H](CO)N3C)cc1	-48.77
COc1ccc(S(=O)(=O)N2C[C@H](O)COC[C@H]3O[C@H](CC(=O)NCc4ccc(Cl)c(Cl)c4)CC[C@@H]32)cc1	-39.91
CCCN(C)C[C@@H]1Oc2ncc(C#Cc3ccc(F)cc3)cc2C(=O)N([C@H](C)CO)C[C@@H]1C	-33.61
COc1ccc(CN(C)C[C@@H]2OCCCC[C@H](C)Oc3ccc(NC(=O)Nc4ccc(OC)cc4)cc3C(=O)N([C@@H](C)CO)C[C@@H]2C)cc1	-46.55

Repeated from the top, 4 entries:

* COc1ccc(NC(=O)Nc2ccc3c(c2)C(=O)N([C@H](C)CO)C[C@H](C)[C@@H](CN(C)Cc2ccc4c(c2)OCO4)OCCCC[C@H](C)O3)cc1 : activity change (Venus) -29.64%
* O=C(C[C@@H]1CC[C@@H]2[C@H](COC[C@H](O)CN2C(=O)c2ccc(F)cc2)O1)Nc1ccc(-c2ccccc2)cc1 : activity change (Venus) -31.84%
* O=C(C[C@@H]1CC[C@@H]2[C@H](COC[C@@H](O)CN2Cc2cccc(-c3ccncc3)c2)O1)N1CCCCC1 : activity change (Venus) -27.95%
* O=C1O[C@@H](c2ccccc2)[C@@H](c2ccccc2)N2[C@@H](c3ccccc3OCCO)[C@]3(C(=O)Nc4ccccc43)[C@@H](C(=O)N3CCCCCCC3)[C@H]12 : activity change (Venus) -32.17%

Data taken from PubChem BioAssay AID1053133, deposited by Broad Institute (2014).